Assay results reported in ChEMBL document CHEMBL4825705, “Iridoid Constituents of Viburnum brachybotryum” (J Nat Prod, 2021).
pIC50: −log10 of the molar value. Structures can show the parent of a compound that is named as a salt.

What was measured:
[1] = test system: A549; assay: Cytotoxicity against human A549 cells assessed as cell growth inhibition measured after 48 hrs by MTT assay; assay type: functional, cell-based; details: A549, 48 h
[2] = test system: HeLa; assay: Cytotoxicity against human HeLa cells assessed as cell growth inhibition measured after 48 hrs by MTT assay; assay type: functional, cell-based

COc1cccc2c1C(=O)c1c(O)c3c(c(O)c1C2=O)C[C@@](O)(C(=O)CO)C[C@@H]3O[C@H]1C[C@H](N)[C@H](O)[C@H](C)O1 [DOXORUBICIN HYDROCHLORIDE]
pIC50 [1]: 6.54
pIC50 [2]: 6.74
